# Molecular target: T1, Phospholipase D (Pseudomonas aeruginosa, UniProt Q9HYC2)
# T1 sequence (Q9HYC2 whole entry): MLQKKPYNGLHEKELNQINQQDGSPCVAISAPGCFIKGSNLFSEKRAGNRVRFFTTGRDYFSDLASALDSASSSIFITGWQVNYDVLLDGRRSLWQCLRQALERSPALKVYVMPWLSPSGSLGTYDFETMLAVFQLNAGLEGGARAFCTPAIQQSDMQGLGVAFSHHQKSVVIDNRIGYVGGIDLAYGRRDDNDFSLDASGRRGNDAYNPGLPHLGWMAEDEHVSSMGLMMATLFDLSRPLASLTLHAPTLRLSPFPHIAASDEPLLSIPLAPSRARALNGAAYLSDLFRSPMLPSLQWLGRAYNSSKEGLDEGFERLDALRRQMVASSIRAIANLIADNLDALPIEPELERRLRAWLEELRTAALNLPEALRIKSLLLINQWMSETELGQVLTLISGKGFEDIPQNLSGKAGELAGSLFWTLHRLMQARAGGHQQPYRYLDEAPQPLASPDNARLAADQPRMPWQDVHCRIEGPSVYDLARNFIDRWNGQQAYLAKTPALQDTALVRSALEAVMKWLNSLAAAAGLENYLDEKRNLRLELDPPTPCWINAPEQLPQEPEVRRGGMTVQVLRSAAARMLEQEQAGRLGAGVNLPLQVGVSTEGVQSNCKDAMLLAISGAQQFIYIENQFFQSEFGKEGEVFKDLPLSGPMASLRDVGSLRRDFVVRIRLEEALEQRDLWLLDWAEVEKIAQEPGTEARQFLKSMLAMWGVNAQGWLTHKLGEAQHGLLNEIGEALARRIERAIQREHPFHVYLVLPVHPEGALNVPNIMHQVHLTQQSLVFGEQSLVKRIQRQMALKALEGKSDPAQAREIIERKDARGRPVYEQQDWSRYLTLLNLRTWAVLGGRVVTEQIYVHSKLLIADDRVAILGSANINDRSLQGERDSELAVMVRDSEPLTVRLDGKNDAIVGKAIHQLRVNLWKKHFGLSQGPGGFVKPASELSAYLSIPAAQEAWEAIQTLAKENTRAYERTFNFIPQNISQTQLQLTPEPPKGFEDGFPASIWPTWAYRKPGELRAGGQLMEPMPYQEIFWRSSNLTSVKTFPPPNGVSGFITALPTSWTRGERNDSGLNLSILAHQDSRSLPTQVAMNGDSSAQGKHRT
# Conditions: pH 7.5
compound,measurement,value
"CC/C(=C(\c1ccccc1)c1ccc(OCCN(C)C)cc1)c1ccccc1 [(2-{4-[(1Z)-1,2-diphenylbut-1-en-1-yl]phenoxy}ethyl)dimethylamine]",IC50,15 µM
